Where a name gives a salt, the structure may show the parent alone. Some of these results come from one statement about several compounds together. For at least one compound, name, drawing or mass did not settle the structure.
Legend:
[1] = system: K562 cells; assay: Production of haemoglobin by electrophoresis on cellulose acetate, benzidine/H2O2 colouring; format: cell-based, human
[2] = system: human cell line K562; assay: Erythroid differentiation of K562 cells (benzidine-positive cells); format: cell-based
Experimental: The activity of the distamycin analogues described previously as inducers of erythroid cell differentiation was evaluated by studying the erythroid differentiation induced in human cell cultures.
The biological activity was evaluated by examining the capacity of those compounds to induce erythroid differentiation in the human cell line K562, which is capable of undergoing erythroid differentiation by expressing the genes for γ-globin if subjected to treatment with modifiers of the biological response that are suitable for the purpose (19-24). The level of differentiation was evaluated by analysing the positive reaction of the cells to benzidine (23). Some of the data obtained are given in Table 1, which represents the results of five independent experiments (mean±SD).

In the case of Cl.Cn1cc(NC(=O)c2cc(NC(=O)c3cc(NC(=O)c4ccc(N(CCCl)CCCl)cc4)cn3C)cn2C)cc1C(=O)NCCC(=N)N [Compound 1, 3-(1-methyl-4-(1-methyl-4-(1-methyl-4-(4-(N,N-bis(2-chloroethyl)amino)benzenecarboxamido)pyrrole-2-carboxamido)pyrrole-2-carboxamido)pyrrole-2-carboxamido)propionamidine hydrochloride], the “chief haemoglobin produced by treated K562 cells” value (“chief haemoglobin produced” for short) [1] is reported as “Hb Portland (ζ2γ2)” and the “percentage of K562 cells that react positively to benzidine compared with untreated control K562 cells (in words)” value (“percentage” for short) [2] is reported as “increase in the percentage of K562 cells that react positively to benzidine”.

For Cl.Cn1cc(NC(=O)c2cc(NC(=O)c3nc(NC(=O)c4ccc(N(CCCl)CCCl)cc4)cn3C)cn2C)cc1C(=O)NCCC(=N)N [Compound 2, 3-(1-methyl-4-(1-methyl-4-(1-methyl-4-(4-(N,N-bis(2-chloroethyl)amino)benzenecarboxamido)imidazole-2-carboxamido)pyrrole-2-carboxamido)pyrrole-2-carboxamido)propionamidine hydrochloride], the “chief haemoglobin produced” value [1] was “Hb Portland (ζ2γ2)” and the “percentage” value [2] was “increase in the percentage of K562 cells that react positively to benzidine”.

For Cn1cc(NC(=O)c2cc(NC(=O)c3cc(NC(=O)c4cc5cc(N(CCCl)CCCl)ccc5o4)cn3C)cn2C)cc1C(=O)NCCC(=N)N [Compound 3, 3-(1-methyl-4-(1-methyl-4-(1-methyl-4-(5-N,N-bis(2-chloroethyl)aminobenzofurane-2-carboxamido)pyrrole-2-carboxamido)pyrrole-2-carboxamido)pyrrole-2-carboxamido)propionamidine hydrochloride], the “chief haemoglobin produced” value [1] was “Hb Portland (ζ2γ2)” and the “percentage” value [2] was “increase in the percentage of K562 cells that react positively to benzidine”.

In the case of CN(C)CCCNC(=O)c1cc2cc(NC(=O)c3cc4cc(NC(=O)c5ccc(N(CCCl)CCCl)cc5)ccc4[nH]3)ccc2o1 [Compound 4, N-(3′-dimethylaminopropyl)-5-(5-(4-(bis(2-chloroethyl)amino)benzoylamino)-1H-indol-2-carboxamido)benzofurane-2-carboxamido hydrochloride], the “chief haemoglobin produced” value [1] is reported as “Hb Portland (ζ2γ2)” and the “percentage” value [2] is reported as “increase in the percentage of K562 cells that react positively to benzidine”.

For Cn1cc(NC(=O)c2cc(NC(=O)c3cc(N(CC4CO4)CC4CO4)cn3C)cn2C)cc1C(=O)NCC/C(N)=N/C#N (stereo not shown) [Compound 5, 3-(1-methyl-4-(1-methyl-4-(1-methyl-4-(N,N-bis(2-oxiranylmethyl)amino)pyrrole-2-carboxamido)pyrrole-2-carboxamido)pyrrole-2-carboxamido)cyanopropionamidine hydrochloride], the “chief haemoglobin produced” value [1] was “Hb Portland (ζ2γ2)” and the “percentage” value [2] was “increase in the percentage of K562 cells that react positively to benzidine”.
